Experimental data taken from publication PMC7408900.
Substitutions are numbered along the chain they refer to. Construct, isoform or probe ends are uncertain for at least one entry. Weaker means in comparison with the reference protein, sequence or condition of that experiment. For part of these data: At least one verdict rests on a figure or table, not on a statement of the authors. For part of these data: Tags and fusion partners may be left off the protein sequences shown.

The chains behind the UniProt entries cited, without tags or fusion partners.
UniProt P26368, whole entry G319V: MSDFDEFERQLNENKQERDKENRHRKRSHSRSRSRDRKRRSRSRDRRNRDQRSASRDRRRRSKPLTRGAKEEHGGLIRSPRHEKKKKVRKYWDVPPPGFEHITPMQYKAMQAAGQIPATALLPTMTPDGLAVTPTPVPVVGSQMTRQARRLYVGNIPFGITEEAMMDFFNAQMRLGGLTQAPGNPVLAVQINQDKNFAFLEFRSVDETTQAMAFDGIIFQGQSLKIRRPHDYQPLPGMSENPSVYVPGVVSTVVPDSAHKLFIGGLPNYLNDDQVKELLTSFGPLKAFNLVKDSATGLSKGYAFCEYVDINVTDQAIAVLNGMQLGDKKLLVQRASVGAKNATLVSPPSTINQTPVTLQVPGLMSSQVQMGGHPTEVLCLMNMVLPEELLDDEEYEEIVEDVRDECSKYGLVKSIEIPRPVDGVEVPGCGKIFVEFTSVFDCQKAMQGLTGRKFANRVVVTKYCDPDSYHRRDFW
UniProt P26368, whole entry G154V: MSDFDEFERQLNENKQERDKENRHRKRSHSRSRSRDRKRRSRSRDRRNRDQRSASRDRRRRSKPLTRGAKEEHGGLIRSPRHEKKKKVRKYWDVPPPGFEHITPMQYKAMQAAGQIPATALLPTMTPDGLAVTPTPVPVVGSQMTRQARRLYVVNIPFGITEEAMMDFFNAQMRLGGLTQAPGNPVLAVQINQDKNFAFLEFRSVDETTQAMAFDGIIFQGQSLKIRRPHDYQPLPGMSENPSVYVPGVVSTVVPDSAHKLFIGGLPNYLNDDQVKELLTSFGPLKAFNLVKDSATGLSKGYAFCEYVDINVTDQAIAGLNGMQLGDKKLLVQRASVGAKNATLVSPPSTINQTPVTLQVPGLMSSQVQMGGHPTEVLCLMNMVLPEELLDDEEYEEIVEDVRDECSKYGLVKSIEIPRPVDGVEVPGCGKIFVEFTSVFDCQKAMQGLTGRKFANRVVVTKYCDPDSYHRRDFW

Assays:
Assay in all cases: EMSA
[1] = target: T1, PUF60 H169Y (human) (UniProt Q9UHX1); conditions: EMSA: 40 mM Tris pH 8.0, 5 mM MgCl2, 0.25 ug/uL heparin, 0.01% Triton, 1 mM DTT, room temperature 20 min, 6% native PAGE in 0.5x TBE at 4 C, 15-17 nM biotin-RNA, recombinant protein, protein details: 2xHis-lipoyl-TEV, removed by TEV, label: 5' biotin
T1 sequence (looked up, limits assumed): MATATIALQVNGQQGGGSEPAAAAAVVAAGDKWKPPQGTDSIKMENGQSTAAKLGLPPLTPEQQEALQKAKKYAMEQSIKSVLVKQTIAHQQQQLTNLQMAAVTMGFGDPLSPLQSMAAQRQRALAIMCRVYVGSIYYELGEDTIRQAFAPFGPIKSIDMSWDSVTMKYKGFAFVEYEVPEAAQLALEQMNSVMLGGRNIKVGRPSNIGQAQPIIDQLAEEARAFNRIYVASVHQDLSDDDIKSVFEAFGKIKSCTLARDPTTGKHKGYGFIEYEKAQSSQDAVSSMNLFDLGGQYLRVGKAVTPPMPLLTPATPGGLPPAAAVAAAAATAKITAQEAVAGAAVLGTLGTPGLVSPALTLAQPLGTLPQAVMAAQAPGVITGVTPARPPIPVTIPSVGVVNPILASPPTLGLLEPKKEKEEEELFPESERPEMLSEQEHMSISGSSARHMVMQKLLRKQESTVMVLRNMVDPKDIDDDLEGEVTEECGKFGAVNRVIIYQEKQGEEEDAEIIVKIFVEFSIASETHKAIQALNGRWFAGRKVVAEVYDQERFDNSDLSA

[2] = target: T2, PUF60 A231P (human) (UniProt Q9UHX1); conditions: EMSA: 40 mM Tris pH 8.0, 5 mM MgCl2, 0.25 ug/uL heparin, 0.01% Triton, 1 mM DTT, room temperature 20 min, 6% native PAGE in 0.5x TBE at 4 C, recombinant protein, protein details: 2xHis-lipoyl-TEV, removed by TEV, label: 5' biotin
T2 sequence (looked up, limits assumed): T1 sequence (looked up, limits assumed) with Y169H, A231P

[3] = target: T3, PUF60 L140P (human) (UniProt Q9UHX1); conditions: EMSA: 40 mM Tris pH 8.0, 5 mM MgCl2, 0.25 ug/uL heparin, 0.01% Triton, 1 mM DTT, room temperature 20 min, 6% native PAGE in 0.5x TBE at 4 C, recombinant protein, protein details: 2xHis-lipoyl-TEV, removed by TEV, label: 5' biotin
T3 sequence (looked up, limits assumed): T1 sequence (looked up, limits assumed) with L140P, Y169H

[4] = target: U2AF65 G319V (human) (UniProt P26368); conditions: still detectable binding, 0.26-2.1 uM protein; EMSA: 40 mM Tris pH 8.0, 5 mM MgCl2, 0.25 ug/uL heparin, 0.01% Triton, 1 mM DTT, room temperature 20 min; 6% native PAGE in 0.5x TBE at 4 C; 15-17 nM biotin-RNA; recombinant protein; label: 5' biotin
[5] = target: U2AF65 G154V (human) (UniProt P26368); conditions: 0.26-2.1 uM protein, 17 nM RNA; EMSA: 40 mM Tris pH 8.0, 5 mM MgCl2, 0.25 ug/uL heparin, 0.01% Triton, 1 mM DTT, room temperature 20 min; 6% native PAGE in 0.5x TBE at 4 C; 15-17 nM biotin-RNA; recombinant protein; label: 5' biotin
[6] = 0.14-1.25 uM protein, 15-17 nM biotin-RNA

Measured: binding result

CUUUUUGUUUCCUUUUUUUUUUAAUUUAAAGG [UBE2F-cr3'ss-32]
binds more weakly: [1]; lower affinity than can probe, approximate Kd only in figure (no saturation), Hill 6.4 | [2]; 15-17 nM … | [3]; 15-17 nM … | [4] | [5]

UUCGUGCUGACCUGUCCCUUUUUUUUCCACAGC [AdML]
binds more weakly: [1]; intermediate binding, 0.14-1.25 uM protein | [2]; [6] | [3]; [6]

UUUUUUUGUUUUGUUUUGUGUUUUUUGAUAGA [UBE2F-can3'ss-32]
binds more weakly: [2]; 15-17 nM … | [3]; 15-17 nM … | [4] | [5]
